# Primary screen of a compound library

Chains of the proteins cited; added tags and fusions are not shown.
UniProt E9BF75, entry or part of it: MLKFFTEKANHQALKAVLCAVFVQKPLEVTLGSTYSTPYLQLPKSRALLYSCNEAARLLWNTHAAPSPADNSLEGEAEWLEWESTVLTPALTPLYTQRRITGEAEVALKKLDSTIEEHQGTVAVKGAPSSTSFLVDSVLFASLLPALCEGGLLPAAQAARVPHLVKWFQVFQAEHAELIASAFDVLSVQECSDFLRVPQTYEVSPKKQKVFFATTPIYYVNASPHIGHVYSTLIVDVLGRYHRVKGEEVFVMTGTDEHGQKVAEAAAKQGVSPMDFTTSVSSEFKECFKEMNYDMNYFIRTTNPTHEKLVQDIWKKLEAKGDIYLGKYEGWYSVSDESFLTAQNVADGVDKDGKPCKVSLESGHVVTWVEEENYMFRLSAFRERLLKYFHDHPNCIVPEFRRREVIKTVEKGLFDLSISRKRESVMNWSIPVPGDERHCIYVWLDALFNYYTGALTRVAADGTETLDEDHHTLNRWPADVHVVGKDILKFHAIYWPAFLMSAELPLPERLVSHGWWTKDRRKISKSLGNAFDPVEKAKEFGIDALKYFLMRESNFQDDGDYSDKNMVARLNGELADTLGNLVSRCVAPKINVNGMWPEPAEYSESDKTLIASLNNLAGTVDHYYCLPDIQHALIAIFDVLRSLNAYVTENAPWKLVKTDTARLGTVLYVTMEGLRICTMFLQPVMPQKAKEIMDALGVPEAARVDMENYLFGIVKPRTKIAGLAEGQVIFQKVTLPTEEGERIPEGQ

Results are percentages, as filed. How 0% and 100% were set is not recorded. Most values in the screen are low, and negative values occur. The compounds are a random part of those screened. A dash means the value is not listed here; it may have been measured.

A: 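Assay on Mycobacterium tuberculosis, filed only as a heat shock assay from Cornell; the read-out is not stated. The concentration is filed as 10 mM, unlikely as a test dose, so the dose is not known. Direction is inferred from retests: higher values go with stronger inhibition. About 69,000 compounds were tested under these conditions; 1.4% (about 930) showed 50% or more at least once.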
B: 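Primary screen of methionyl-tRNA synthetase; the read-out is not stated. Target: Methionyl-tRNA synthetase (putative), Leishmania donovani (UniProt E9BF75). The test concentration is not given. The values are filed as inhibition. About 68,000 compounds were tested under these conditions; 0.035% (about 24) showed 50% or more at least once.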
C: 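Whole-cell assay for inhibitors of Mycobacterium tuberculosis growth, labelled Cornell in the record; the read-out is not stated. The concentration is filed as 10 mM, unlikely as a test dose, so the dose is not known. The record gives no direction; compounds strong in two other growth screens of this library score well above the rest, so higher reads as stronger inhibition. About 53,000 compounds were tested under these conditions; 1.7% (about 900) showed 50% or more at least once.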

CC(C)S(=O)(=O)CCN1CCN(C(C#N)c2ccccc2)CC1 (stereo not drawn) gave A: -1.68%; B: 11.78%; C: 5.962%. Result for CCc1sc(C(=O)Nc2cnn(CCN(C)C)c2)cc1C was A: -17.83%; B: 11.35%; C: 10.43%. For O=C(c1cccs1)N1CCN(Cc2cc(=O)c3ccccc3[nH]2)CC1 the result was A: 13.72%; B: 15.25%; C: 36.07%. COc1ccc(OC)c(Sc2ncccc2C(=O)N(C)CCC#N)c1 read A: -18.37%; B: -0.3367%; C: 10.08%. CSc1nc(O)c(Cc2ccccc2)c(=O)n1-c1ccccc1 gave A: -13.39%; B: 9.524%; C: 18.81%. COCCC(=O)N1Cc2[nH]nc(COc3cccnc3)c2C1 gave A: 3.228%; B: 7.092%; C: -21.14%.

Result for N#Cc1cc(NC(=O)c2ccsc2)ccc1N1CCC(O)CC1 was A: 11.62%; B: 12.68%. For [H][C@]12CC[C@@]3(N=C(C)NC3=O)[C@@]1([H])CN(C(=O)NCCc1ccccc1)C2 the result was A: -14.41%; C: 18.84%. O=C(O)C(F)(F)F.[H][C@@]12OCCN(C(=O)c3ccoc3C)[C@@]1([H])CC[C@H]2OCc1ccccn1 read A: -5.094%; C: -20.89%. With CCS(=O)(=O)N1CCCC2(CCCN2Cc2cccc(F)c2)C1 (stereo not drawn) the screen gave B: 14.49%. Result for CCn1ncc2c1CCCC2NCc1csc(C(C)C)n1 (stereo not drawn) was A: 2.049%; B: 16.55%; C: 22.35%. With O=C(O)C(F)(F)F.O=C(O)C(F)(F)F.O=C(O)C(F)(F)F.c1cnc(NCc2noc3c2CN(CCN2CCCC2)CC3)nc1 the screen gave A: 10%; C: 37.3%.

For CCN(Cc1ccc(OC)c(F)c1)C(=O)c1ccc(C)[nH]c1=O the result was A: 3.275%; B: 20.41%. Result for Cc1cc(F)c(S(=O)(=O)NCC(C)(C)N)cc1F was B: 3.904%. With O=C(CSc1ccccc1Cl)NS(=O)(=O)c1ccc2c(c1)OCCO2 the screen gave A: -10.07%; B: 1.02%. Result for Fc1cccc(CN2CCC(c3noc(-c4ccccn4)n3)CC2)c1F was A: 12.47%; B: 8.861%; C: 10.24%. O=C(NCCCNc1ccc(C(F)(F)F)cn1)c1ccc(F)cc1Br read A: 8.784%; B: 22.1%. For Cc1nc(C)n(CC2CCCN(CC(=O)NC3CCOCC3)C2)n1 (stereo not drawn) the result was A: -5.025%; B: 11.45%.

For COc1ccc(S(=O)(=O)N2CCC(S(C)(=O)=O)CC2)cc1C the result was A: 21.95%; B: 11.76%; C: 19.58%. CCN(C)C(=O)c1cc(-c2ccn(C(C)C)n2)n2ccccc12 read A: 10.04%; B: 10.51%; C: 68.36%. Result for [H][C@]12CCNC[C@@]1([H])OCCN(Cc1csc(C)n1)C2 was A: -24.23%; C: -11.81%. For NC(=O)COc1cccc(C(=O)Nc2cnc3n2CCCC3)c1 the result was A: 34.17%; B: 12.39%; C: -59.03%. CC1=N[C@@]2(CC[C@@H]3CN(C(=O)NCc4cccc(F)c4)C[C@@H]32)C(=O)N1 read B: 0.6667%. Result for CC(C)CNC(=O)Nc1ccc(CN2CCOC2=O)cc1 was A: 6.202%; B: 2.655%; C: -17.93%.

NS(=O)(=O)N1CCC(C(=O)Nc2cccc(OC(F)F)c2)CC1 read A: 7.553%; B: 11.02%; C: 7.063%. O=C(O)C(F)(F)F.O=C(O)C(F)(F)F.[H][C@@]12CCCO[C@]1([H])[C@H](NC(=O)c1cnn(C)c1)CN2Cc1cccnc1 read A: -43.84%; C: 10.58%. COCCN(CC(C)C)C(=O)c1cccc(Nc2cnccn2)c1 read A: 6.159%; B: 7.859%; C: 9.437%. With CC(=O)N1CCN(C(=O)c2c(Cl)c3ccccc3n2C)CC1 the screen gave A: -16.3%; B: 19.93%; C: 13.35%. For O=C(CC(F)(F)F)N1CCc2[nH]nc(-c3ccc4c(c3)OCO4)c2C1 the result was A: -9.832%; B: 8.591%; C: 18.47%. Cc1cnn(CCNCc2nnc(-c3occc3C)o2)c1 gave A: -5.41%; B: 9.836%.

Cc1noc(-c2ccnc(N3CCC(N4CCCC4)CC3)c2)n1 gave A: 11.06%; B: 10.94%; C: 38.22%. NC(=O)c1cn[nH]c1C1CCCN1C(=O)c1ccccn1 (stereo not drawn) gave A: 3.463%; B: 5.774%; C: -11.36%. Cn1nc2c(cc1=O)CN(Cc1coc(-c3ccccc3)n1)CC2 read A: -4.752%; B: 12.58%. Cc1cc(C)cc(OCC(=O)N2CCC2)c1 gave A: 24.92%; B: 10.95%; C: 24.29%. Result for CN(Cc1csc(-c2cccs2)n1)Cc1ncccc1C(=O)O was A: -22.64%; B: 7.666%. Result for Cc1csc(CCNC(=O)C2CCN(CC(N)=O)CC2)n1 was A: -4.687%; B: -2.892%; C: -0.5651%.

COc1cc(OC)cc(-c2cc(N)on2)c1 read A: 14.84%; B: 6.469%; C: 29.64%. For CC(C)n1nc(Cn2cccn2)c2c1CN(C1CCOC1)C2 (stereo not drawn) the result was B: 13.87%.

4 of the entries, repeated:

SMILES,A,B,C
Fc1cccc(CN2CCC(c3noc(-c4ccccn4)n3)CC2)c1F,12.47,8.861,10.24
COc1cc(OC)cc(-c2cc(N)on2)c1,14.84,6.469,29.64
O=C(NCCCNc1ccc(C(F)(F)F)cn1)c1ccc(F)cc1Br,8.784,22.1,-
CC1=N[C@@]2(CC[C@@H]3CN(C(=O)NCc4cccc(F)c4)C[C@@H]32)C(=O)N1,-,0.6667,-

The values are deposited in ChEMBL (CHEMBL3988442, “University of Dundee, Small-Polar-MMV Screening Library” (2021)).